According to doi:10.1101/2025.08.09.669493:
Numbering of substitutions follows the chain as printed. These are yes or no findings as the source states them, for the method shown. In cells and extracts the contact can be indirect. Binding calls can cover weak binding; strength is not graded here.

What was measured:
[1] = biological target: T1, IRF4^R98A/C99A, IRF-motif-binding-deficient mutant of IRF4 (human) (UniProt Q15306); assay: co-IP
T1 sequence: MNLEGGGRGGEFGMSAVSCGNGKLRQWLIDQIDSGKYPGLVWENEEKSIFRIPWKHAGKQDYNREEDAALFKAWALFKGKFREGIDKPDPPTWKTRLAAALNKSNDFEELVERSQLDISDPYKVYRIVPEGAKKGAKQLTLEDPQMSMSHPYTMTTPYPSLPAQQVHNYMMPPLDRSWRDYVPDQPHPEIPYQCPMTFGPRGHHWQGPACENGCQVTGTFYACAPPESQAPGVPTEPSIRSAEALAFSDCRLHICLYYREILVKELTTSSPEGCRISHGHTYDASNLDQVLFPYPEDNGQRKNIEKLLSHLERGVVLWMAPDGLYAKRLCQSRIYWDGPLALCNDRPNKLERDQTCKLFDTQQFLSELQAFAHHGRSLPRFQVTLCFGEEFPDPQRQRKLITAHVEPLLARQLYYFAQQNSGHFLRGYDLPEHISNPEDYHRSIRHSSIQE

[2] = biological target: T2, interferon regulatory factor 4 (IRF4), wild type (human) (UniProt Q15306); assay: co-IP
T2 sequence: T1 sequence with A98R, A99C

Kaposi's sarcoma-associated herpesvirus (KSHV) vIRF3
binding [1]: binds
binding [2]: binds
